Entries after “also recorded” stand apart in the source; their conditions may differ. At least one structure is not confirmed: it was looked up by name or label, or the drawing left a doubt.
What was measured:
[1] = test system: E. coli transformed with IPTG-inducible antisense clones (AS-rplW, AS-rplLrplJ, AS-elaD, AS-visC, AS-yohH, AS-atpB/E); experiment: Cell-based assay: antibiotic sensitivity of E. coli antisense clones pretreated with IPTG (Example 9)
Source text: The effectiveness of the above cell-based assay was validated using constructs expressing antisense RNA to the proliferation required E. coli genes rplL, rplJ, and rplW encoding ribosomal proteins L7/L12, L10 and L23 respectively. These proteins are part of the protein synthesis apparatus of the cell and as such are required for proliferation. These constructs were used to test the effect of antisense expression on cell sensitivity to antibiotics known to bind to the ribosome and thereby inhibit protein synthesis. Constructs expressing antisense RNA to several other genes (elaD, visC, yohH, and atpE/B), the products of which are not involved in protein synthesis were used for comparison.
First, pLEX5BA (Krause et al., J. Mol. Biol. 274: 365 (1997), the disclosure of which is incorporated herein by reference in its entirety) expression vectors containing antisense constructs to either rplW or to elaD were introduced into separate E. coli cell populations. Vector introduction is a technique well known to those of ordinary skill in the art. The expression vectors of this example contain IPTG inducible promoters that drive the expression of the antisense RNA in the presence of the inducer. However, those skilled in the art will appreciate that other inducible promoters may also be used. Suitable expression vectors are also well known in the art. The E. coli antisense clones to genes encoding ribosomal proteins L7/L12, L10 and L23 were used to test the effect of antisense expression on cell sensitivity to the antibiotics known to bind to these proteins. Expression vectors containing antisense to either the genes encoding L7/L12 and L10 or L23 were introduced into separate E. coli cell populations.
The cell populations were exposed to a range of IPTG concentrations in liquid medium to obtain the growth inhibitory dose curve for each clone (FIG. 1). First, seed cultures were grown to a particular turbidity that is measured by the optical density (OD) of the growth solution. The OD of the solution is directly related to the number of bacterial cells contained therein. Subsequently, sixteen 200 ul liquid medium cultures were grown in a 96 well microtiter plate at 37° C. with a range of IPTG concentrations in duplicate two-fold serial dilutions from 1600 uM to 12.5 uM (final concentration). Additionally, control cells were grown in duplicate without IPTG. These cultures were started from equal amounts of cells derived from the same initial seed culture of a clone of interest. The cells were grown for up to 15 hours and the extent of growth was determined by measuring the optical density of the cultures at 600 nm. […]

[2] = test system: Bacterial cells expressing antisense nucleic acid complementary to rplL and rplJ (50S ribosomal subunit proteins); type: cell-based, E. coli; conditions: significant decrease in IC50 in the presence of inducer IPTG
Description: Two-fold dilution series of antibiotics with a known mechanism of action are generated in the culture media selected for further assay development that has been supplemented with the antibiotic used to maintain the construct. A panel of test antibiotics known to act on different pathways is tested side by side with three to four wells being used to evaluate the effect of a test antibiotic on cell growth at each concentration. Equal volumes of test antibiotic and cells are added to the wells of a 384 well microtiter plate and mixed. Cells are prepared as described above using the media selected for assay development supplemented with the antibiotic required to maintain the antisense construct and are diluted 1:100 in identical media immediately prior to addition to the microtiter plate wells. For a control, cells are also added to several wells that contain the solvent used to dissolve the antibiotics but no antibiotic. Cell growth is monitored continuously by incubation at 37° C. in a microtiter plate reader monitoring the OD600 of the wells over an 18-hour period. […] A plot of percent inhibition against log[antibiotic concentration] allows extrapolation of an IC50 value for each antibiotic.
The culture media selected for use in the assay is supplemented with inducer at concentrations shown to inhibit cell growth by 50% and 80% as described above and the antibiotic used to maintain the construct. Two fold dilution series of the panel of test antibiotics used above are generated in each of these media. Several antibiotics are tested side by side with three to four wells being used to evaluate the effects of an antibiotic on cell growth at each concentration, in each media. Equal volumes of test antibiotic and cells are added to the wells of a 384 well microtiter plate and mixed. Cells are prepared as described above using the media selected for use in the assay supplemented with the antibiotic required to maintain the antisense construct. […] Immediately prior to addition to the microtiter plate wells, the cultures are adjusted to an appropriate OD600 (typically 0.002) by dilution into warm (37° C.) sterile media supplemented with identical concentrations of the inducer and antibiotic used to maintain the antisense construct. For a control, cells are also added to several wells that contain solvent used to dissolve test antibiotics but which contain no antibiotic. Cell growth is monitored continuously by incubation at 37° C. in a microtiter plate reader monitoring the OD600 of the wells over an 18-hour period. […] A plot of percent inhibition against log[antibiotic concentration] allows extrapolation of an IC50 value for each antibiotic.
Antibiotics of various chemical classes and modes of action were purchased from Sigma Chemicals (St. Louis, Mo.). […]

[3] = cells/clone expressing antisense to rplL and rplJ (L7/L12, L10), IPTG induced

| SMILES | sensitivity to antibiotic [1, 3] | Sensitivity Increased? [2] | sensitivity to antibiotic ([1]; cells expressing antisense to genes not involved in protein synthesis (AS-atpB/E, AS-visC, AS-elaD, AS-yohH)) | sensitivity to antibiotic ([1]; cells with reduced levels of L23 (AS-rplW), IPTG induced) |
| --- | --- | --- | --- | --- |
| CC1COc2c(N3CCN(C)CC3)c(F)cc3c(=O)c(C(=O)O)cn1c23 (centres unmarked) [Ofloxacin] | does not show increased sensitivity | No | – | – |
| CN(C)[C@@H]1C(O)=C(C(N)=O)C(=O)[C@@]2(O)C(O)=C3C(=O)c4c(O)cccc4[C@@](C)(O)[C@H]3C[C@@H]12 [Tetracycline] | increased sensitivity | Yes | did not show the same increased sensitivity; also recorded: much less sensitive | increased sensitivity |
| C[C@H]1c2cccc(O)c2C(=O)C2=C(O)[C@]3(O)C(=O)C(C(N)=O)=C(O)[C@@H](N(C)C)[C@@H]3[C@@H](O)[C@@H]21 [Doxycycline] | – | Yes | – | – |
| CN(C)c1ccc(O)c2c1C[C@H]1C[C@H]3[C@H](N(C)C)C(O)=C(C(N)=O)C(=O)[C@@]3(O)C(O)=C1C2=O [Minocycline] | – | Yes | – | – |

— patent publication US20020022718A1, “Genes identified as required for proliferation of E. coli” (priority 1999, published 2002)
